# At least one structure is not confirmed: it was looked up by name or label, or the drawing left a doubt.
# What was measured:
# [1] = system: MOG-induced EAE; experiment: MOG-induced EAE, CX-5461 treatment initiated at clinical onset; format: in vivo; settings: 12.5 mg/kg/day and 25.0 mg/kg/day oral from disease onset
# Experimental: EAE was induced in female C57BL/6 mice, 8 weeks of age, by subcutaneous immunization to the flank of emulsion (1:1 ratio volume/volume) containing […] peptide dissolved in phosphate-buffered saline (PBS) (at a concentration 2 mg/ml) and 0.5 mg Mycobacterium Tuberculosis H37Ra (Difco, Detroit, Mich.) in […] incomplete Freund's adjuvant (Sigma, St. Louis, Mo.). Pertussis toxin 200 ng/mouse (dissolved in […] PBS (List Biological Laboratories, Campbell, Calif.) was injected intra-peritoneal on the day of immunization and again two days later. Mice were monitored daily for clinical signs of EAE, scored as follows: 1-flaccid tail; 1.5—hind limb weakness; 2—paralyzed hind limbs and poor righting ability; 2.5—forelimb weakness, paralyzed hind limbs, paralyzed tail; 3—four limbs paralysis, inability to right; 4—quadriplegia; 5.0—moribund or death of the animal after preceding clinical disease. Animal reaching a score of 4 were scarified using CO2. Mice were kept in an SPF (Specific Pathogen Free) environment. Animal breeding and maintenance and all experimental protocols were performed in accordance with the Israeli Council for Animal Care guidelines and all experiments were approved by Sheba IRB Animal Care Ethical Committee. […]
# EAE was induced in female C57/6J female mice as described above. […] The day of disease onset was evaluated for each animal daily.
# [2] = system: human PBMCs obtained from MS patients; experiment: Apoptosis of PBMCs from MS patients by flow cytometry (Annexin V, PI, P53, RRN3); format: cell-based; settings: 25-250 nM, 24 hours
# [3] = system: human PBMCs obtained from healthy subjects; experiment: XTT cell viability of PHA-stimulated human PBMCs from healthy subjects; format: cell-based; settings: above 50 nM up to 500 nM, 72 hours
# Experimental: FIG. 6 is a histogram depicting the effect of CX-5461 on viability of human PBMCs. Human PBMCs were plated in DMEM+10% FCS+P/S+Q and 20 μg/ml PHA (400,000 cell/well) in the presence of increased concentrations of CX-5461 (50-500 nM) for 72 hours. Cells cultured with PHA alone served as controls. After incubation cell viability was determined by XTT assay;
# PBMCs ([…]) from normal, healthy, subjects were plated in the presence of PHA (20 μg/ml) with elevated concentrations of CX-5461 (50-500 nM) for 72 hours. Cells plated in absence of CX-5461 served as controls.
# [4] = system: RNA Polymerase I (Pol I); settings: previous study, Drygin et al. 2011; cited from earlier work
compound,measurement,setting,value
"Cc1cnc(CNC(=O)c2c(=O)c3ccc(N4CCCN(C)CC4)nc3n3c2sc2ccccc23)cn1 [CX-5461, 2-(4-methyl-1,4-diazepan-1-yl)-N-((5-methylpyrazin-2-yl)methyl)-5-oxo-5H-benzo[4,5]thiazolo[3,2-a][1,8]naphthyridine-6-carboxamide]",EAE scores compared to control vehicle group,[1],significantly lower EAE scores
same,P53 expression (percent P53 positive cells),[2],stimulation of P53 expression
same,apoptosis of PBMCs (PI and Annexin V stained cells),[2]; dose dependent,significantly stimulated apoptosis
same,RRN3 expression (percent RRN3 positive cells),[2]; p=0.00003,reduction in its expression
same,effect of increased concentrations on viability of human PBMCs,[3],did not result with further decrease in cell viability
same,Pol I activity in human cancer cell lines,[4],inhibited Pol I activity

# Reference: patent publication US20140086839A1, “QUINOLONE ANALOGS FOR TREATING AUTOIMMUNE DISEASES” (Tel HaShomer Medical Research Infrastructure and Services …, priority 2011, published 2014)
